For experiment [1], the target named is insulin receptor (IR) (human (endogenous in A549 and H226Br)) (UniProt P06213). Description: co-IP; IGF2-stimulated A549 cells; endogenous proteins; association of IR with KPNB1 and KPNA2.
In experiment [2] the target is NPM1 deletion mutant lacking HBD (ΔHBD) (UniProt P06748). Description: co-IP; H226Br cells expressing FLAG-tagged NPM1 (FL, truncation or deletion mutants), stimulated with IGF2 for 3 h; IP with an anti-FLAG antibody.

Amino acid sequences for entries named in this document (tags omitted). A change or cut given only in a name is not applied to a line headed by its entry. Residues count along the entry.
UniProt P06213, residues 28-1382: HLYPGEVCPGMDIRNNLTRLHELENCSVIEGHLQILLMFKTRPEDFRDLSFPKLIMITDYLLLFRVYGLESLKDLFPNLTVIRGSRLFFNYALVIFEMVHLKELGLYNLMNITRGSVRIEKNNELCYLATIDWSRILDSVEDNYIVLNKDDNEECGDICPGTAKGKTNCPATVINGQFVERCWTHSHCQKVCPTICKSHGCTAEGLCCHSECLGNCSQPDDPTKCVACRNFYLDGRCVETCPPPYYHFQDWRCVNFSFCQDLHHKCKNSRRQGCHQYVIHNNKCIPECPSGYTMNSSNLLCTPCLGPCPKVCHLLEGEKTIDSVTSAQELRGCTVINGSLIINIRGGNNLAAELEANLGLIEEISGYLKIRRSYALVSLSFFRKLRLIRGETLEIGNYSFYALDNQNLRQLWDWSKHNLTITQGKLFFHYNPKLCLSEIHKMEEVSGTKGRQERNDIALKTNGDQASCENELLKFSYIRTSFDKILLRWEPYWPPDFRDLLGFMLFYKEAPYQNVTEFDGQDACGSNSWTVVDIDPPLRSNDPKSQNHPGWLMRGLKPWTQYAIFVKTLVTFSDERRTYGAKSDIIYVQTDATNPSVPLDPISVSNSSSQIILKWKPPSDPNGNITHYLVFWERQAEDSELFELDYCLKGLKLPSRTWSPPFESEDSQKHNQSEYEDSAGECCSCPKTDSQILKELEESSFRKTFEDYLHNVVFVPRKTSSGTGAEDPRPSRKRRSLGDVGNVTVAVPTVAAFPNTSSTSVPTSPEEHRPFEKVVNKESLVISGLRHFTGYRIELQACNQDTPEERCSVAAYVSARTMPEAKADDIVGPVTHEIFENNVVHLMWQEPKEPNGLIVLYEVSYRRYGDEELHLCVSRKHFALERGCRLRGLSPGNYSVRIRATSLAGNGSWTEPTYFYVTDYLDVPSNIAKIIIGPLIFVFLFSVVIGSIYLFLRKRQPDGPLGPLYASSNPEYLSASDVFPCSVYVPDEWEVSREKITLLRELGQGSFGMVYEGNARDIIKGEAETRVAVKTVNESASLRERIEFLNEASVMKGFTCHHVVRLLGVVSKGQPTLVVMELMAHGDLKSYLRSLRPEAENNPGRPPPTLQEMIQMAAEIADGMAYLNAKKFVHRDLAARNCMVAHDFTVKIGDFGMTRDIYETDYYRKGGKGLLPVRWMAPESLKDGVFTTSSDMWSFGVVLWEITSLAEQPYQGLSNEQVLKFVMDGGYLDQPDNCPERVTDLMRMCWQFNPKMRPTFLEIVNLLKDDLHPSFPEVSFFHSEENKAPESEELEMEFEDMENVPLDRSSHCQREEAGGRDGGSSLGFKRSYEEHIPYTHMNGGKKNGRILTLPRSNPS
UniProt P06748: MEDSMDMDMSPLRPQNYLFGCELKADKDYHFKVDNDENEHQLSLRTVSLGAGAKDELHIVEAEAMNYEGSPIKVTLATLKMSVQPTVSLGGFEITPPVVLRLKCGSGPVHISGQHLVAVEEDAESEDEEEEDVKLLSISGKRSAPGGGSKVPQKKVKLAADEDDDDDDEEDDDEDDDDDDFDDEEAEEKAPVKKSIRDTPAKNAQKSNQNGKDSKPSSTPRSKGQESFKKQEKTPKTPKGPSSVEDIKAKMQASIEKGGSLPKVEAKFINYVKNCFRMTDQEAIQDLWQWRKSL
UniProt Q14974: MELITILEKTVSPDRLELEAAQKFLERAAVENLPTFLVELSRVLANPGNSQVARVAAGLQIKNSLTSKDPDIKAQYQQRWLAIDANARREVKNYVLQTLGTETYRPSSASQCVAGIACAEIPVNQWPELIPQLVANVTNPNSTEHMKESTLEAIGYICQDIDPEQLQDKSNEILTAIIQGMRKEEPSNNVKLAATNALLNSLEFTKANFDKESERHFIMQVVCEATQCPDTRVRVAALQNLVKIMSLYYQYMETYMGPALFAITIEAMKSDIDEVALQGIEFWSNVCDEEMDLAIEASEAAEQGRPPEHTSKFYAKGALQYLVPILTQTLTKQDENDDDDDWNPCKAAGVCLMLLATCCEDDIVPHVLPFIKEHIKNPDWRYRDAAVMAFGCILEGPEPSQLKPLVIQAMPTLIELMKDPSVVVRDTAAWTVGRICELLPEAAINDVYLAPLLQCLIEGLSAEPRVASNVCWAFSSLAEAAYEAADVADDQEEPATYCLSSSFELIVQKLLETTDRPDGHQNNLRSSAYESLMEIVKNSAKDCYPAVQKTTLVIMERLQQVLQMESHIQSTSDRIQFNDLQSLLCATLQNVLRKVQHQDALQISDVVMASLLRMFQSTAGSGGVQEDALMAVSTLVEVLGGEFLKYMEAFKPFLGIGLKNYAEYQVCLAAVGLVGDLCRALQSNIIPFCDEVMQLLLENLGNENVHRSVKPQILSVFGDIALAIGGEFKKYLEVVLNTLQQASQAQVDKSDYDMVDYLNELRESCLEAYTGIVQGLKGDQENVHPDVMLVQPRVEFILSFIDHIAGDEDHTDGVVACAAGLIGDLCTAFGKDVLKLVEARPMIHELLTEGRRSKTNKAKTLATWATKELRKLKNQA

These are yes or no findings as the source states them, for the method shown. Binding seen in cells or lysates may run through a third protein. Binding calls can cover weak binding; strength is not graded here.

Consider “importin-1 (karyopherin subunit beta 1; KPNB1) (from UniProt Q14974)”, for which the binding result in experiment [1] was “binds”. Consider “insulin receptor (IR) (from UniProt P06213-1 28-1382)”, for which the binding result in experiment [2] is “binds”.

The record behind these values is article PMC11162468.
